# According to PubChem BioAssay AID254 (DTP/NCI, 2004):
# The list does not hold the whole screen: it is rich in T/C values a quarter to a half above the control, in often repeated tests (any T/C) and in doses without a T/C. Other doses and runs of a compound stand elsewhere. T/C: endpoint of the treated group in % of that of the vehicle group. Some entries give survivors of the animals treated and no T/C: the source files T/C as zero there, which appears to mark a toxic dose or a test without result, not a measured value. Some doses without a T/C left all or most animals alive at the check, yet need not have been tolerated: survival well below the control is almost never listed, so the zero probably covers shortened survival too. Survivors were counted at the toxicity check, usually on the fifth day, unless a day is given; later deaths do not show. Schedules are NCI's codes, read here as Q, the interval in days (D) or hours (H), X, the number of doses. Some entries hold several experiments; the values are given in rising order. Where survival is the endpoint, the PubChem record calls one and a half times the control and up active, and a quarter to a half above the control has no call in these data; cut-offs in other NCI protocols can differ.
# Test system: L1210 leukemia iv in BDF1 mice, survival T/C
# Experiment: NCI In Vivo Anticancer Drug Screen. Data for tumor model L1210 Leukemia (intravenous) in B6D2F1 (BDF1) mice
# Details: T/C endpoint: mean survival time, higher T/C = longer survival
# Description: The antitumor activity of compounds was measured in mice bearing transplantable tumors. Survival or tumor size were measured and the results are expressed as the measurement made in the treated group (T) divided by the measurement made in the vehicle treated control group (C). The tumor model used in this assay is L1210 Leukemia (intravenous) in B6D2F1 (BDF1) mice
smiles,measurement,setting,value
Nc1nc(=S)c2[nH]cnc2[nH]1,T/C,"dose: 0.4 mg/kg/injection, schedule: Q01HX008 (ip), vehicle: alkali diluted with saline",149 % of control
same,T/C,"dose: 0.4 mg/kg/injection, schedule: Q03HX008 (ip), vehicle: alkali diluted with saline",125 % of control
same,T/C,"dose: 0.6 mg/kg/injection, schedule: Q03HX008 (ip), vehicle: alkali diluted with saline",146 % of control
same,T/C,"dose: 0.6 mg/kg/injection, schedule: Q06HX008 (ip), vehicle: alkali diluted with saline",132 % of control
same,T/C,"dose: 0.6 mg/kg/injection, schedule: Q12HX008 (ip), vehicle: alkali diluted with saline",131 % of control
same,T/C,"dose: 3.2 mg/kg/injection, schedule: Q01DX001 (ip), vehicle: alkali diluted with saline",146 % of control
NC(=S)N/N=C/c1ccccn1,T/C,"dose: 5.0 mg/kg/injection, schedule: Q01DX008 (ip), vehicle: other",145 % of control
same,T/C,"dose: 5.0 mg/kg/injection, schedule: Q06HX008 (ip), vehicle: other",141 % of control
same,T/C,"dose: 5.0 mg/kg/injection, schedule: Q12HX008 (ip), vehicle: other",148 % of control
same,T/C,"dose: 8.0 mg/kg/injection, schedule: Q01HX008 (ip), vehicle: other",129 % of control
COc1cc([C@@H]2c3cc4c(cc3[C@@H](OC3OC5COC(C)OC5C(O)C3O)[C@H]3COC(=O)[C@H]23)OCO4)cc(OC)c1O (some centres undefined),T/C,"dose: 18.0 mg/kg/injection, schedule: Q04DX003 (ip), vehicle: saline",128 % of control
same,T/C,"dose: 27.0 mg/kg/injection, schedule: Q04DX003 (ip), vehicle: saline",143 % of control
O=P1(N(CCCl)CCCl)NCCCO1 (centres undefined),T/C,"dose: 53.0 mg/kg/injection, schedule: Q04DX004 (ip), vehicle: saline, evaluated on day 3",139 % of control
same,T/C,"dose: 53.0 mg/kg/injection, schedule: Q04DX004 (ip), vehicle: saline, evaluated on day 60",139 % of control
same,T/C,"dose: 59.0 mg/kg/injection, schedule: Q01DX001 (ip), vehicle: saline",128 and 147 % of control
same,T/C,"dose: 60.0 mg/kg/injection, schedule: Q01DX001 (ip), vehicle: saline",128 % of control
same,T/C,"dose: 80.0 mg/kg/injection, schedule: Q01DX001 (ip), vehicle: saline",144 % of control
same,T/C,"dose: 100.0 mg/kg/injection, schedule: Q01DX001 (ip), vehicle: saline, evaluated on day 3",202 % of control
same,T/C,"dose: 100.0 mg/kg/injection, schedule: Q01DX001 (ip), vehicle: saline, evaluated on day 45","159, 187, 209 % of control"
same,T/C,"dose: 125.0 mg/kg/injection, schedule: Q01DX001 (ip), vehicle: saline, evaluated on day 45","166, 205, 236 % of control"
same,T/C,"dose: 125.0 mg/kg/injection, schedule: Q01DX001 (ip), vehicle: saline, evaluated on day 60",212 % of control
same,T/C,"dose: 150.0 mg/kg/injection, schedule: Q01DX001 (ip), vehicle: saline, evaluated on day 3","226, 235, 247 % of control"
same,T/C,"dose: 150.0 mg/kg/injection, schedule: Q01DX001 (ip), vehicle: saline, evaluated on day 45","217, 252, 256 % of control"
same,T/C,"dose: 200.0 mg/kg/injection, schedule: Q01DX001 (ip), vehicle: saline, evaluated on day 3","142, 270, 282, 287 % of control"
same,T/C,"dose: 200.0 mg/kg/injection, schedule: Q01DX001 (ip), vehicle: saline, evaluated on day 45","231, 251, 265, 384 % of control"
same,T/C,"dose: 250.0 mg/kg/injection, schedule: Q01DX001 (ip), vehicle: saline, evaluated on day 3",104 and 340 % of control
same,T/C,"dose: 250.0 mg/kg/injection, schedule: Q01DX001 (ip), vehicle: saline, evaluated on day 45","316, 429, 474, 592 % of control"
same,T/C,"dose: 250.0 mg/kg/injection, schedule: Q01DX001 (ip), vehicle: saline, evaluated on day 60",241 % of control
same,T/C,"dose: 300.0 mg/kg/injection, schedule: Q01DX001 (ip), vehicle: saline, evaluated on day 3","139, 338, 373, 385, 476, 483, 517 % of control"
same,T/C,"dose: 300.0 mg/kg/injection, schedule: Q01DX001 (ip), vehicle: saline, evaluated on day 45","433, 513, 548 % of control"
same,T/C,"dose: 375.0 mg/kg/injection, schedule: Q01DX001 (ip), vehicle: saline, evaluated on day 3","309, 388, 414 % of control"
same,T/C,"dose: 375.0 mg/kg/injection, schedule: Q01DX001 (ip), vehicle: saline, evaluated on day 45","398, 439, 608 % of control"
same,survivor count,"dose: 468.0 mg/kg/injection, schedule: Q01DX001 (ip), vehicle: saline",6 of 10
O=NN(CCCl)C(=O)NC1CCCCC1,T/C,"dose: 7.0 mg/kg/injection, schedule: Q01DX001 (ip), vehicle: Klucel (hydroxypropylcellulose) (HPC), evaluated on day 3",141 and 145 % of control
same,T/C,"dose: 7.0 mg/kg/injection, schedule: Q01DX001 (ip), vehicle: Klucel (hydroxypropylcellulose) (HPC), evaluated on day 60",141 and 146 % of control
same,T/C,"dose: 10.0 mg/kg/injection, schedule: Q01DX001 (ip), vehicle: carboxymethylcellulose (CMC)",132 and 134 % of control
same,T/C,"dose: 14.0 mg/kg/injection, schedule: Q01DX001 (ip), vehicle: Klucel (hydroxypropylcellulose) (HPC), evaluated on day 3","145, 160, 176, 202, 235, 242 % of control"
same,T/C,"dose: 14.0 mg/kg/injection, schedule: Q01DX001 (ip), vehicle: Klucel (hydroxypropylcellulose) (HPC), evaluated on day 60","160, 176, 202, 235, 242 % of control"
same,T/C,"dose: 16.6 mg/kg/injection, schedule: Q01DX001 (ip), vehicle: carboxymethylcellulose (CMC)",147 % of control
same,T/C,"dose: 21.0 mg/kg/injection, schedule: Q01DX001 (ip), vehicle: Klucel (hydroxypropylcellulose) (HPC), evaluated on day 3",197 and 281 % of control
same,T/C,"dose: 21.0 mg/kg/injection, schedule: Q01DX001 (ip), vehicle: Klucel (hydroxypropylcellulose) (HPC), evaluated on day 60",198 and 281 % of control
same,T/C,"dose: 25.0 mg/kg/injection, schedule: Q01DX001 (ip), vehicle: carboxymethylcellulose (CMC), evaluated on day 45","218, 247, 309 % of control"
same,T/C,"dose: 25.0 mg/kg/injection, schedule: Q01DX001 (ip), vehicle: carboxymethylcellulose (CMC), evaluated on day 60",302 % of control
same,T/C,"dose: 28.0 mg/kg/injection, schedule: Q01DX001 (ip), vehicle: Klucel (hydroxypropylcellulose) (HPC), evaluated on day 3","264, 265, 270, 342, 854, 875 % of control"
same,T/C,"dose: 28.0 mg/kg/injection, schedule: Q01DX001 (ip), vehicle: Klucel (hydroxypropylcellulose) (HPC), evaluated on day 60","265, 270, 342, 854, 875 % of control"
same,T/C,"dose: 43.0 mg/kg/injection, schedule: Q01DX001 (ip), vehicle: Klucel (hydroxypropylcellulose) (HPC), evaluated on day 3","626, 677, 695, 833, 1170 % of control"
same,T/C,"dose: 43.0 mg/kg/injection, schedule: Q01DX001 (ip), vehicle: Klucel (hydroxypropylcellulose) (HPC), evaluated on day 60","170, 626, 677, 695, 834 % of control"
same,T/C,"dose: 50.0 mg/kg/injection, schedule: Q01DX001 (ip), vehicle: carboxymethylcellulose (CMC), evaluated on day 45","602, 650, 823 % of control"
same,T/C,"dose: 50.0 mg/kg/injection, schedule: Q01DX001 (ip), vehicle: carboxymethylcellulose (CMC), evaluated on day 60","306, 673, 707, 792 % of control"
same,T/C,"dose: 57.0 mg/kg/injection, schedule: Q01DX001 (ip), vehicle: Klucel (hydroxypropylcellulose) (HPC), evaluated on day 3","555, 625, 817, 937, 1090 % of control"
same,T/C,"dose: 57.0 mg/kg/injection, schedule: Q01DX001 (ip), vehicle: Klucel (hydroxypropylcellulose) (HPC), evaluated on day 60","88, 555, 625, 818, 937 % of control"
same,T/C,"dose: 71.0 mg/kg/injection, schedule: Q01DX001 (ip), vehicle: Klucel (hydroxypropylcellulose) (HPC), evaluated on day 3","412, 439, 566, 629, 643 % of control"
same,T/C,"dose: 71.0 mg/kg/injection, schedule: Q01DX001 (ip), vehicle: Klucel (hydroxypropylcellulose) (HPC), evaluated on day 60","412, 439, 566, 630, 644 % of control"
COc1cccc2c1C(=O)c1c(O)c3c(c(O)c1C2=O)C[C@@](O)(C(=O)CO)C[C@@H]3OC1CC(N)C(O)C(C)O1 (some centres undefined),survivor count,"dose: 5.0 mg/kg/injection, schedule: Q01DX005 (iv), vehicle: saline",8 of 8
same,survivor count,"dose: 6.0 mg/kg/injection, schedule: Q01DX005 (iv), vehicle: saline",11 of 13 and 8 of 8
same,survivor count,"dose: 7.0 mg/kg/injection, schedule: Q01DX005 (iv), vehicle: saline",7 of 8
same,survivor count,"dose: 8.0 mg/kg/injection, schedule: Q01DX005 (iv), vehicle: saline",12 of 13
O=NN(CCCl)C(=O)NC1CS(=O)(=O)CS(=O)(=O)C1,T/C,"dose: 5.3 mg/kg/injection, schedule: Q04DX004 (ip), vehicle: saline with Tween-80, evaluated on day 3",133 % of control
same,T/C,"dose: 5.3 mg/kg/injection, schedule: Q04DX004 (ip), vehicle: saline with Tween-80, evaluated on day 60",133 % of control
